The values below come from article PMC7180057.

These are yes or no findings as the source states them, for the method shown. In cells and extracts the contact can be indirect. For some assays here: A result given as binding can be weak or reduced; the word gives no strength. Tags and fused reporters may be left off the sequences shown.

Test [1] addresses T1, Tctn-GFP (pTub-Tctn-GFP) (Drosophila melanogaster) (UniProt Q9VMH0).
T1 sequence: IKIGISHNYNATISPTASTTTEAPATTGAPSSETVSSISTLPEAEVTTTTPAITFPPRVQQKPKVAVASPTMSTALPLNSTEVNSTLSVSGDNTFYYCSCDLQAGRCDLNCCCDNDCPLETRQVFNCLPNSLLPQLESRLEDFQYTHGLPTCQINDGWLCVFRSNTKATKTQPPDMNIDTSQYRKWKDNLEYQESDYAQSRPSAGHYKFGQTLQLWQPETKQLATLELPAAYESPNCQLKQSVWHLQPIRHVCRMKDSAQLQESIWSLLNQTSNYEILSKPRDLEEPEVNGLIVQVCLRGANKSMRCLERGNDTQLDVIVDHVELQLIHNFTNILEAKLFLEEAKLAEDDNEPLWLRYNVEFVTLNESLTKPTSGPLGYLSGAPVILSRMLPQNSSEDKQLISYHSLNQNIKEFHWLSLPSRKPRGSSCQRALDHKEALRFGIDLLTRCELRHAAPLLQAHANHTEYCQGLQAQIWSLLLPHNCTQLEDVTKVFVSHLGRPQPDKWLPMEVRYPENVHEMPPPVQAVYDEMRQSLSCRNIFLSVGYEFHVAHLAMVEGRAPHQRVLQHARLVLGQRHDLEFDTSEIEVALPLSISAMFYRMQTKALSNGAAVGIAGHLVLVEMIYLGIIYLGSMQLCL
Briefly: pull-down; GFP pull-down with GFP-Trap agarose from lysates of transfected S2 cells (10 mM Tris-HCl pH 7.5, 150 mM NaCl, 0.5 mM EDTA, 1% Triton-X-100, diluted), 4°C, four washes with 350 mM NaCl; Dsh-GFP or Tctn-GFP held, Vang-Flag detected by Western blot (Figure 6A). (In general: In western blotting, separated proteins are transferred to a membrane and probed.)

In test [2] the target is Vang-Flag wild-type (pUAS-Vang-Flagx3) (Drosophila melanogaster). Briefly: pull-down; Flag pull-down with anti-Flag M2 affinity gel from lysates of transfected S2 cells (50 mM Tris-HCl pH 7.5, 150 mM NaCl, 1 mM EDTA, 1% Triton-X-100), 4°C, washes with 350 mM NaCl and with 500 mM NaCl, 0.1% SDS; Flag-tagged Vang held, Dsh-GFP, Myc-Pk or HA-Dgo detected by Western blot (Figure 6B, C, D, F).

The target of test [3] is Vang-K418C-Flagx3 (Drosophila melanogaster). Described as above.
In test [4] the target is Vang-R332H-Flagx3 (Drosophila melanogaster). The description is as above.
The target of test [5] is Vang-V391T-Flagx3 (Drosophila melanogaster). The description is as above.

As to “Vang-Flag wild-type (pUAS-Vang-Flagx3) (Drosophila melanogaster)”, the binding entry in test [1] is recorded as “no binding”.

B1: Myc-Pk (pAc5.1-Myc-Pk) (protein, UniProt A1Z6W3 1-1299)
chain: MSSLSTGGGAGGSSGGPGGADAAAAPAAGQATVTATGNMEPAMVPRTANLLACKQWWRVCFLYGDQQKYYRQLYSKAAAQRLADANQEPDNARDREYDTVDCDLIAGQLDAVEDADDGIDLGDHSSTPKGGATTAGRPLFPHSSSPRRSKKLLRSLRAHVRGEKLPKNDTTTANESSEVTQRNARVTVLDDPFLFGIDADHLGDLVVRGKRYSTLDATENMARFYAEQEATAQVLEIIEQEEESPEQEAPKPALPPKQKQQRPVPPLPPPPANRVTQDQGTQPAAPQVPLQPLTAGDLQFLNLSLRQRSLPRSMKPFKDAHDISFTFNELDTSAEPEVATGAAQQESNEPISRTPLTQISYLQKIPTLPRHFSPSGQGLATPPALGSGGMGLPSSSSASALYAAQAAAGILPTSPLPLQRHQQYLPPHHQQHPGAGMGPGPGSGAAAGPPLGPQYSPGCSANPKYSNAQLPPPPHHHHQLSPALSTPSPPSLLHHPAGGTSSASAHAPFLGGPHMDMQRQSHSDDDSGCALEEYTWVPPGLRPDQVRLYFSQIPDDKVPYVNSPGEQYRVRQLLHQLPPHDNEVRYCHSLTDEERKELRLFSTQRKRDALGRGNVRQLMSARPCDGCDDLISTGDIAVFATRLGPNASWHPACFACSVCRELLVDLIYFHRDGRMYCGRHHAETLKPRCSACDEIILADECTEAEGRAWHMNHFACHECDKQLGGQRYIMREGKPYCLHCFDAMFAEYCDYCGEAIGVDQGQMSHDGQHWHATDECFSCNTCRCSLLGRAFLPRRGAIYCSIACSKGEPPTPSDSSGTGMYTTPTPPTQRVRPHPQAPLPARIPSSHASSSPPMSPQQQQQHQATFNQAMYQMQSQQMEAAGGLVDQSKSYAASDSDAGVVKDLEHGGHMGGGDLTDFSGGRASSTSQNLSPLNSPGDFQPHFLPKPMELQRDGVYNFNEMSSNLDAAWSAKPTNSYHLQRQLLENPHTASMPELAGKLVAPPAHMQHLSQLHAVSSHQFQQHEYADILHPPPPPPGEIPELPTPNLSVASTALPPELMGSPTHSAGDRSLNTPMSTQSASHAPPHPVSILSGASSSSPMSGEPAKKKGVRFEGIPDTLPRSRSYSGNGAGTSGGGERERDRDKDKEGGGRHGHGHSSRRRRRRKSSSSSSHHRSGSGHRSHSTTRADTYAPAQPLSSSYQGPPSVLQAANLVHESPSRQQREREREREREESEESDVCSTCSSSSSSSEDYMMMYQLPQRRHYGGVRVSYVPNDALAYDRKRKPSELGGDKDKNCIIS
With B1, the binding entry in test [2], in test [3], in test [4] and in test [5] was “binds” throughout.
